The text below walks through data of US6410245B1, “Compositions and methods for detecting ligand-dependent nuclear receptor and coactivator interactions” (priority 1998, dated 2002).

The chains behind the UniProt entries cited, without tags or fusion partners. Residues count along the entry.
UniProt Q92731, residues 248-530: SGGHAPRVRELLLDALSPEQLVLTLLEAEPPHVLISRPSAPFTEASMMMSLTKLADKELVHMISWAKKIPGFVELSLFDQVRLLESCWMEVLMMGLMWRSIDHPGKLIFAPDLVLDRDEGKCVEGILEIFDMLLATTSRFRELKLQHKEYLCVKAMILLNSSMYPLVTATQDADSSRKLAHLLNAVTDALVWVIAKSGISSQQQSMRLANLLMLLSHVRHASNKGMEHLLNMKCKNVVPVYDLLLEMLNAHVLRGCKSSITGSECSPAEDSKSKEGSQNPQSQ
UniProt Q15788, residues 597-781: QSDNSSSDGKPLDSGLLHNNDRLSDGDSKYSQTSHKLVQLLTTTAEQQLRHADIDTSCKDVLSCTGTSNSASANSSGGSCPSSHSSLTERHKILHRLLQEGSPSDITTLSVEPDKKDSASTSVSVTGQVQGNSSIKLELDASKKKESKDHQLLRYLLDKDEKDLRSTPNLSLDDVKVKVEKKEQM

No constants are given. Whether binding was seen depends on the method and setting. Some results given as binding are weak or reduced against the parent protein; the word gives no strength.

The target in assay [1] is GST-ERβ (human) (UniProt Q92731). The assay is described as follows: direct interaction ELISA with fusion proteins containing TR or ER LBDs. In general terms: An ELISA detects its analyte on a solid surface through an enzyme-linked reagent.
The target is the same in assay [2]. The assay is described as follows: direct interaction ELISA: GST-LBD on the well, SRC-1 fusion detected by its 179 epitope tag.

On to GST-SRC-1 (from UniProt Q15788 597-781), for which the binding result in assay [1] and in assay [2] was “binds” throughout.
